No constants are given. Whether binding was seen depends on the method and setting. Binding calls can cover weak binding; strength is not graded here.
B1: GIPC (GAIP C-terminus-interacting protein 1, synectin) (protein, UniProt O14908 1-333)
chain: MPLGLGRRKKAPPLVENEEAEPGRGGLGVGEPGPLGGGGSGGPQMGLPPPPPALRPRLVFHTQLAHGSPTGRIEGFTNVKELYGKIAEAFRLPTAEVMFCTLNTHKVDMDKLLGGQIGLEDFIFAHVKGQRKEVEVFKSEDALGLTITDNGAGYAFIKRIKEGSVIDHIHLISVGDMIEAINGQSLLGCRHYEVARLLKELPRGRTFTLKLTEPRKAFDMISQRSAGGRPGSGPQLGTGRGTLRLRSRGPATVEDLPSAFEEKAIEKVDDLLESYMGIRDTELAATMVELGKDKRNPDELAEALDERLGDFAFPDEFVFDVWGAIGDAKVGRY

Chains of the proteins cited; added tags and fusions are not shown. Lines headed by an entry give the natural chain unless they say otherwise; changes in a name come on top.
UniProt P08069: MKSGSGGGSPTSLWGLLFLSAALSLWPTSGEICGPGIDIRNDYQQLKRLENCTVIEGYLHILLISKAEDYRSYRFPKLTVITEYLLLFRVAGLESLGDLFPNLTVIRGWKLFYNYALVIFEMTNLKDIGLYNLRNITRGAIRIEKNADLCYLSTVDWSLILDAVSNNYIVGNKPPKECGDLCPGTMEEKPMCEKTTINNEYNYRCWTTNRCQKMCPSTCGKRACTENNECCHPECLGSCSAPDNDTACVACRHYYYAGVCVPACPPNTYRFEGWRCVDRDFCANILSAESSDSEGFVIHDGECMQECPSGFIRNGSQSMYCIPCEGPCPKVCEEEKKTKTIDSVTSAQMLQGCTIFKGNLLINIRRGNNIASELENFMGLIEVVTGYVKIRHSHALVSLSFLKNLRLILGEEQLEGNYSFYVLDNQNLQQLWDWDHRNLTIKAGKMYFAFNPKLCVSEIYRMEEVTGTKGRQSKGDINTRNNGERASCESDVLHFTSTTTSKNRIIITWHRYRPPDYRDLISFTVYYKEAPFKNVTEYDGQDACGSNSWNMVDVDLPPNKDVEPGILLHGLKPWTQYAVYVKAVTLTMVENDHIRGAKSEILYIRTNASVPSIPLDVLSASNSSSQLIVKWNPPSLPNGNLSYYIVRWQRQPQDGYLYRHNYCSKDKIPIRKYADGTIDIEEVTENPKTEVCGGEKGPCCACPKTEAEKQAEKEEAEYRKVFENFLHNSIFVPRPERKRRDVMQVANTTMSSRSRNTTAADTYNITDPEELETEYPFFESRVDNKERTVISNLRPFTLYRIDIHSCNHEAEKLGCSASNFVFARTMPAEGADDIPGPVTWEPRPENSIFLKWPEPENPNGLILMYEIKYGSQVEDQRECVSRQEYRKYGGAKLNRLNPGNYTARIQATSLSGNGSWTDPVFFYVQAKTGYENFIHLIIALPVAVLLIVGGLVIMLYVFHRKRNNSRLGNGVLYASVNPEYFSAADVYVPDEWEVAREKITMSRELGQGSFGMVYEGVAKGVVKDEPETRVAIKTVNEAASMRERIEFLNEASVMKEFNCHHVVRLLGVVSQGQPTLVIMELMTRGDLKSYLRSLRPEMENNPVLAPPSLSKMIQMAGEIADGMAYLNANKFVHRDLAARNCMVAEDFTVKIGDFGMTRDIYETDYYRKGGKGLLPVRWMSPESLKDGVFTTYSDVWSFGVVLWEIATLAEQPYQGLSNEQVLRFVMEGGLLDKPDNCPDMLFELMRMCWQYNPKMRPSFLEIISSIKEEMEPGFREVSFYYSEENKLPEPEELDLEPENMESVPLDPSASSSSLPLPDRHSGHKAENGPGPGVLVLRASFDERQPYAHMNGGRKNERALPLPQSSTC
UniProt P35568: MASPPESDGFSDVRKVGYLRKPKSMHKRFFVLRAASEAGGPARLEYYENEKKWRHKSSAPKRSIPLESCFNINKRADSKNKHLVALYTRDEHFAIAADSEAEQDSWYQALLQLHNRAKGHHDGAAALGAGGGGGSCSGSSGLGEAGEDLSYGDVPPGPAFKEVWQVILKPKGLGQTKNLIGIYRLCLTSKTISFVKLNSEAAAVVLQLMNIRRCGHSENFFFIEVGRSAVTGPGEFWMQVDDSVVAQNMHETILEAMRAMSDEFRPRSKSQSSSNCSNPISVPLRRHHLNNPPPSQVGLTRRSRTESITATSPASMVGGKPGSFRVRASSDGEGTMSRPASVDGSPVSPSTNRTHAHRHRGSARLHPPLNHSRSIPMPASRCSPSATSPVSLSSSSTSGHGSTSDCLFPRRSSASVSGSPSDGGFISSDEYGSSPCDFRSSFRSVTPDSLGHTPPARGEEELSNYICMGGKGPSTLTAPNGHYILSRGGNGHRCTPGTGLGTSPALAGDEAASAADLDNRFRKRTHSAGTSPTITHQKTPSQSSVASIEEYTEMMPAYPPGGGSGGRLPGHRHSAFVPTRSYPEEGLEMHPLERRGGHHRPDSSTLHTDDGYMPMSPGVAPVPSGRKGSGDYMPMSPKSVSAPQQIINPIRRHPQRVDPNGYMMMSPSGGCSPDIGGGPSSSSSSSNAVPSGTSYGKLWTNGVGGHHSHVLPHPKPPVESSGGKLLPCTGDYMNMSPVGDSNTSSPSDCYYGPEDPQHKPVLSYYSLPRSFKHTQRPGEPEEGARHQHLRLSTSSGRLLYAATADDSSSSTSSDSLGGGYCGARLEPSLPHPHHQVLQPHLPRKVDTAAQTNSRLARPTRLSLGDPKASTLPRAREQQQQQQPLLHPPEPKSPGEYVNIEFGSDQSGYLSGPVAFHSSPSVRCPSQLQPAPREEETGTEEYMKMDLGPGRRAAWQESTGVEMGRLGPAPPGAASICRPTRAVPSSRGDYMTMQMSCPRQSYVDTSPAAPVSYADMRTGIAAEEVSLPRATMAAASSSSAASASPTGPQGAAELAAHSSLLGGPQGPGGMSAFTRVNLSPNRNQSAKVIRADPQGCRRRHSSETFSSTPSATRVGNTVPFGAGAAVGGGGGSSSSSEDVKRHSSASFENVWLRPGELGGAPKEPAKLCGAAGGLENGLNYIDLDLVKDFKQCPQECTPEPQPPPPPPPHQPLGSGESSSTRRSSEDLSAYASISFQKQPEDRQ
UniProt P31946: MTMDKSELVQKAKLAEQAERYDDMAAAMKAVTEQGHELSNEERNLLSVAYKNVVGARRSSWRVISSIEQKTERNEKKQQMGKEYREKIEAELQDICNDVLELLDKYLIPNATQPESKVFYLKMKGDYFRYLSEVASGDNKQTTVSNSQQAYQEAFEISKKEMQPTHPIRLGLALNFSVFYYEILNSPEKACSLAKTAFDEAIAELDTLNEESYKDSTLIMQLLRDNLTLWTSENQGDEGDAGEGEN

target: IGF1R-C wild type (intracellular domain of the IGF1R fused to a LexA DNA binding domain) (human) (UniProt P08069); assay: two-hybrid; colony-lift filter assay with X-Gal; EGY48/LacZ yeast co-transformed with pLexA (IGF1R-C derivatives) and pB42 (adapter proteins) constructs; 30°C

| Molecule | binding |
| --- | --- |
| IRS1 (insulin receptor substrate 1), B42-AD fusion (from UniProt P35568 1-1242) | binds |
| 14-3-3β, B42-AD fusion (from UniProt P31946 1-246) | binds |
| B1 | binds |

From publication PMC3365032
